These are yes or no findings as the source states them, for the method shown. Binding can be weak; no strength is given.

In this assay the target is Monkey SA (monkey). As to the kind of experiment: SPR, BioRad ProteOn XPR36, albumin amine-coupled to GLC chip, 25 C.

B1: PEP07986-neutral linker-A500 (protein)
chain: MGSLAEAKEAANAELDSYGVSDFYKRLIDKAKTVEGVEALKDAILAALPTGGGGSGGGSGGGSGGGSASVPIQKVQDDTKTLIKTIVTRINDISHTQSVSSKQKVTGLEFIPGLHPILTLSKMDQTLAVYQQILTSMPSRNVIQISNDLENLRDLLHVLAFSKSCHLPQASGLETLESLGGVLEASGYSTEVVALSRLQGSLQDMLQQLDLSPGC
Regarding B1, the binding entry is recorded as “binds”.
